Data from article doi:10.1101/2021.10.11.463940.
No constants are given. Whether binding was seen depends on the method and setting. Binding seen in cells or lysates may run through a third protein. Here binding means that the protein was enriched with, or labelled near, the bait; the list need not be complete. Where a sequence is shown, tags or fusion partners need not be part of it.

By UniProt entry, the sequences of proteins in these tests, tags left out.
UniProt O08539: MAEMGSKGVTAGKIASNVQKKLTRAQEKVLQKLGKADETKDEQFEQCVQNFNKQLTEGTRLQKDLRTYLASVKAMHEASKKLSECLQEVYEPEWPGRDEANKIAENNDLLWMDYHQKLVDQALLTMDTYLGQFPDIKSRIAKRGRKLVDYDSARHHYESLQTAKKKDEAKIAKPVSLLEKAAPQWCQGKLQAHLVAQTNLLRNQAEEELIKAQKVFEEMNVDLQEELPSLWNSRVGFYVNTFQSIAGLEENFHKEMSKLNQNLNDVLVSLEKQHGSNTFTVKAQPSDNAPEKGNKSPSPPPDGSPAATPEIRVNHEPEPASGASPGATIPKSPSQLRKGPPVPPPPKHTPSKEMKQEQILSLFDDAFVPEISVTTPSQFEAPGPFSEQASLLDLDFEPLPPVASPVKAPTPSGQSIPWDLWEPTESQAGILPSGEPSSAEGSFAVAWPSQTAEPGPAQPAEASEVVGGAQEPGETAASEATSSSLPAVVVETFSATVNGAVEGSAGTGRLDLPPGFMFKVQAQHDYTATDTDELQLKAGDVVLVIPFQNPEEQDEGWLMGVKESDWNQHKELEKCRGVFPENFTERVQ
UniProt Q9QZB6: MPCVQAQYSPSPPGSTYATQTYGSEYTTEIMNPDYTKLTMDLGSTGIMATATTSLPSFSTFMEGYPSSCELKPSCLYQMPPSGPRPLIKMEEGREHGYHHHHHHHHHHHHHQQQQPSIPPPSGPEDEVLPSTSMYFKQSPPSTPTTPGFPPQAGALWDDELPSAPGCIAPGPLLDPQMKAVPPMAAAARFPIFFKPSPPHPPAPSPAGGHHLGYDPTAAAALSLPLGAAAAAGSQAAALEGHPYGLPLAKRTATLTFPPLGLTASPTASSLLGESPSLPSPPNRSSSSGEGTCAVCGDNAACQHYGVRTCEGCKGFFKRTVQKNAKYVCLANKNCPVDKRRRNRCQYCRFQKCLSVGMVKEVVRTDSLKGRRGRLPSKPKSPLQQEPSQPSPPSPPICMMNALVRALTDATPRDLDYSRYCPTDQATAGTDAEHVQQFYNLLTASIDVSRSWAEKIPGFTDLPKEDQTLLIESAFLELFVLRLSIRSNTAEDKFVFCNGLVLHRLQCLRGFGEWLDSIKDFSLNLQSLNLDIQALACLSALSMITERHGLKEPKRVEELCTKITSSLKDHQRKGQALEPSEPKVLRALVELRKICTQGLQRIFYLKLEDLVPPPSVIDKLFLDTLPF

T1: myotubularin (MTM1) with 6x-HIS tag, from Mtm1-6xHis mice (mouse (endogenous in mouse skeletal muscle)) (UniProt Q9Z2C5)
T1 sequence: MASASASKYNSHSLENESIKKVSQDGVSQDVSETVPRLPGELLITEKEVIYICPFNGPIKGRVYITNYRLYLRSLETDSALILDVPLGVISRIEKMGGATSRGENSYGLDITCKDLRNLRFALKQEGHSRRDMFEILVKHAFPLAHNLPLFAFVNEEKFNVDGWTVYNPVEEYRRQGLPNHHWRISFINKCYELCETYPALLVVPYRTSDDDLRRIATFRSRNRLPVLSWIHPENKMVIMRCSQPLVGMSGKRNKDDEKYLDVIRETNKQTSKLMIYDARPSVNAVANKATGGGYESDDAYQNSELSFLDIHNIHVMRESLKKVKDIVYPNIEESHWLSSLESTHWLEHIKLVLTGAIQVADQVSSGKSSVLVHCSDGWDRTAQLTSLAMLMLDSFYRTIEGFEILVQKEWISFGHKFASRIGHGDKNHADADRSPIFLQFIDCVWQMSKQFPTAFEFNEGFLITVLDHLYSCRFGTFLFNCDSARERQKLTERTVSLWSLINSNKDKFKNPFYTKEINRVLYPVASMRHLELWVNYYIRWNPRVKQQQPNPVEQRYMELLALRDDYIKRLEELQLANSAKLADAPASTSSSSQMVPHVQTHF


target: T1, myotubularin (MTM1) with 6x-HIS tag, from Mtm1-6xHis mice (mouse (endogenous in mouse skeletal muscle)); test: affinity purification with mass spectrometry

binding | Molecule
binds | BIN1 (from UniProt O08539 1-588)
binds | MTMR10 (protein, UniProt Q7TPM9 1-771) MFSLKPPRPSFRSYLLPPAQTDDKISSEPKIKKLEPVLLPGEIVVNEVNFVRKCIATDTSQYDLWGKLICSNFKISFITDDPMPLQKFHYRNLLLGEHDVPLTCIEQIVTVNDHKRKQKVLGPNQKLKFNPTELIIYCKDFRIVRFRFDESGPESAKKVCLAIAHYSQPTDLQLLFAFEYVGKKYHNSANKVNGVSSGGGGVWSGAGSTGSQRTPLFETYSDWDRETKRTGASGWRVCSINEGYMISTCLPEYFVVPSSLADQDLKIFSHSFVGRRMPFWCWSHSNGSALVRMALIKDALQQRKIDQRICNAITKSHPQRSDVYKSDLDKALPNIQEIQAAFVKLKQLCVNEPFEETEEKWLSSLESTRWLEYVRAFLKHSAELVYILESQRLSVVLQEEEGRDLSCLVASLIQVMMDPYFRTITGFQSLIQKEWVMAGYQFLDRCNHLKRSEKESPLFLLFLDTTWQLLEQYPAAFEFSETYLAVLCDSTRISLFGTFLFNSPHQRVKQSTEFAISKNIQLGDEKGLKFPSVWDWALQFTAKDRTLFHNPFYIGKSTPCVQNGSRKSFKRTKKSYSSTLRGMPSCLKNGIITDQDLLPRRNSLVLKLKPDPPQHTDSQHSGAEQYFKEWFSRPANLHGIILPRLSGTHIKLWKLCYFRWVPEAQINLGGSIMAFHKLSLLADEVDMLSRMLRQHRSGPLEACYAELDQSRMYFRATGPHDTLGTPEFLSSSFPFSPVGNLCRRSILGTPLSKFLSGAKIWLSTETLANED

More lines, now with the values behind:

Molecule | binding
Nuclear Receptor Subfamily 4 Group A Member (NR4A3) (from UniProt Q9QZB6 1-627) | binds
reticulon 2 (RTN2) (from UniProt O70622-2) | binds
MTMR12 (protein, UniProt Q80TA6 1-747) MLGKGGVGGGGGTKAPKPSFVSYVRPEEIHTDEKEVTEKEVTLHLLPGEQLLCEASTVLKYVQEDSCQRGVYGRLVCTDFKISFLGDEDSALDNGGEAQFKNKIIGVNDVPLHCVDQIYGVFDEKKKPLFGQLKKYPEKLVIHCKDLRVLHFCLRYTKEEEVKRIVSGIIHHTQSPKLLKRLFLFSYAAAVHGTATDSRNCTVMFDTPKDWCWELERTKGSVKYRTVSVNEGYRVSDRLPAYFVVPTPLPEDDVRRFQGHGIPIWCWSCHNGSALLKMSALPKEQDDGALQVQKSFLDGIYKTIHRPPYEMVKTEDLSSNFLSLQEIQSAYCKFKQLFLIDNSSEFWDTDIKWFSLLESSSWLDIIRRCLKKAIEITECLEAQNVNVLLLEENASDLCCLLSSLVQVMMDAHCRTRTGFQSLIQKEWVMGGHSFLDRCNHLHQSDKEEVPIFLLFLDCVWQLVHQYPPAFEFTETYLTVLSDSLYIPIFSTFFFNSPHQKDTNMGRENLDAQSKPLTLLTVWDWSVQFEPKAQTLLRNPLYVEKPKLDRGQQKGSRFKHQRQLSLPLTQSKSSPKRGFFREETDHLIKNLLGKRISKLINSSDDLQDSSREFYDSWHSKPTDYHGLLLPHIEGPEIKVWAQRYLRWIPEAQILGGGRVATMGKLLEMMEEVQSLQEKIEARHHRQEAVHAEAPGLLRNSVRLSSLFPFALLQRHSAKPVLPTSGWKALGGEDDLAKREDEFVDLGDV | binds
